From PubChem BioAssay record AID1080 (Emory University Molecular Libraries Screening Center, 2008).

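A cell line overexpressing EP4 prostanoid receptors, stimulated with a low (about EC15) PGE2 dose; cAMP read by HTRF FRET after a short room-temperature incubation.
Compounds were tested at 20 µM final. A low (about EC15) PGE2 dose was present.
Percent cAMP induction as a fraction of the 1 µM PGE2 response, averaged over three replicates; a higher value means more cAMP.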

Values are in %.
Common to all entries: measured here: EP4 receptor counter-screen.
Part of the compounds only, not a random draw; the main read-out is not listed here.

{"structure": "C=C(C)Cn1c(C)cc(C)c(S(=O)(=O)c2cccc(C)c2)c1=O", "setting": "percent of 1 uM PGE2 response; plus low (about EC15) PGE2 agonist", "cAMP induction (%)": "-3.383"}
{"structure": "COc1c(O)cc2oc3cc(O)c(CC=C(C)C)c(O)c3c(=O)c2c1CC=C(C)C", "setting": "percent of 1 uM PGE2 response; plus low (about EC15) PGE2 agonist", "cAMP induction (%)": "-0.49"}
{"structure": "Cc1cccc(/C=N/Nc2cc(N3CCOCC3)nc(N3CCOCC3)n2)c1", "setting": "percent of 1 uM PGE2 response; plus low (about EC15) PGE2 agonist", "cAMP induction (%)": "-8.66"}
{"structure": "Cc1oncc1-c1csc(-c2ccccc2Cl)n1", "setting": "percent of 1 uM PGE2 response; plus low (about EC15) PGE2 agonist", "cAMP induction (%)": "4.81"}
{"structure": "Cc1ccc(/C=C/c2nc3ccccc3c(=O)n2CCc2ccccc2)cc1", "setting": "percent of 1 uM PGE2 response; plus low (about EC15) PGE2 agonist", "cAMP induction (%)": "-2.557"}
{"structure": "CCOC(=O)c1c(-c2ccc(C)cc2)csc1NC(=O)CCN1CC(C)OC(C)C1", "stereo": "stereo not shown", "setting": "percent of 1 uM PGE2 response; plus low (about EC15) PGE2 agonist", "cAMP induction (%)": "3.413"}
{"structure": "CC1(C)OC(c2ccccc2)=C/C(=C/C=Nc2ccccc2)O1", "setting": "percent of 1 uM PGE2 response; plus low (about EC15) PGE2 agonist", "cAMP induction (%)": "3.993"}
{"structure": "COC(=O)NC1(C(F)(F)F)C(=O)NC(C)=C1C(=O)OC", "stereo": "stereo not shown", "setting": "percent of 1 uM PGE2 response; plus low (about EC15) PGE2 agonist", "cAMP induction (%)": "5.933"}
{"structure": "Cc1cc(C)c2c(n1)sc1c(=O)n(Cc3ccccc3Cl)nnc12", "setting": "percent of 1 uM PGE2 response; plus low (about EC15) PGE2 agonist", "cAMP induction (%)": "3.11"}
{"structure": "S=C1NCCc2ccc(Cl)cc2C1c1ccccc1", "stereo": "stereo not shown", "setting": "percent of 1 uM PGE2 response; plus low (about EC15) PGE2 agonist", "cAMP induction (%)": "-1.967"}
{"structure": "Cn1c(=O)c2c(SCc3cccnc3)nc(CC(C)(C)C)nc2n(C)c1=O", "setting": "percent of 1 uM PGE2 response; plus low (about EC15) PGE2 agonist", "cAMP induction (%)": "-6.97"}
{"structure": "CCOC(=O)c1c(NC(=O)Cn2nnc3ccccc32)sc2c1CCC(C)C2", "stereo": "stereo not shown", "setting": "percent of 1 uM PGE2 response; plus low (about EC15) PGE2 agonist", "cAMP induction (%)": "-2.123"}
{"structure": "C=CCc1cc(C=O)cc(OC)c1OCc1c(Cl)cccc1Cl", "setting": "percent of 1 uM PGE2 response; plus low (about EC15) PGE2 agonist", "cAMP induction (%)": "-8.317"}
{"structure": "Cc1ccc2nc(-c3ccncc3)cc(-c3ccccc3)c2c1", "setting": "percent of 1 uM PGE2 response; plus low (about EC15) PGE2 agonist", "cAMP induction (%)": "2.517"}
{"structure": "CC[C@H](C)C(=O)O[C@H]1C[C@@H](C)C=C2C=C[C@H](C)[C@H](CC[C@@H]3C[C@@H](O)CC(=O)O3)[C@H]21", "setting": "percent of 1 uM PGE2 response; plus low (about EC15) PGE2 agonist", "cAMP induction (%)": "2.81"}
{"structure": "COc1cc(C=O)ccc1OC(=O)c1ccc(C(C)C)cc1", "setting": "percent of 1 uM PGE2 response; plus low (about EC15) PGE2 agonist", "cAMP induction (%)": "-6.747"}

Some entries from above, unchanged:

structure,setting,cAMP induction (%)
Cc1cccc(/C=N/Nc2cc(N3CCOCC3)nc(N3CCOCC3)n2)c1,percent of 1 uM PGE2 response; plus low (about EC15) PGE2 agonist,-8.66
CC1(C)OC(c2ccccc2)=C/C(=C/C=Nc2ccccc2)O1,percent of 1 uM PGE2 response; plus low (about EC15) PGE2 agonist,3.993